Test results reported in patent publication US9457101B2, “Hydrogels for delivery of therapeutic polypeptides” (priority 2012, dated 2016).
Where two headings read alike, the source gives them in different places.

Conditions: for protein elution from the microspheres: 10 mM GSH
Method: Protein Release. GSH mediated release studies were carried out over 6 days. Protein release was measured from 10,000 to 20,000 microspheres into 500 μL PBS in the presence and absence of glutathione. Release was measured with three independent replicates per experimental group. […] Therefore, at each 24-hour time point, glutathione containing buffers were completely replaced. The buffer that was removed was frozen for later analysis. At the completion of the experiment, all frozen samples were thawed and 50 μL of each samples were diluted in PBS and read on a Quantech fluorometer.

GST-GFP
protein elution from the microspheres (48 hours): 50%
protein elution from the microspheres (6 days): complete elution
GST-GFP elution (10 mM and 1 mM GSH, within 48 hours): significantly eluted
